# Results reported in patent US20120207721A1.
# By UniProt entry, the sequences of proteins in these tests, tags left out. Where a name states a change or a piece, a line headed by the entry shows the natural chain unless it says otherwise. Chains listed by the source or under a name are the forms on record and can include a tag or linker.
# histidine-tagged insulin receptor (R&D systems, no1544-IR/CF) (P06213, form named): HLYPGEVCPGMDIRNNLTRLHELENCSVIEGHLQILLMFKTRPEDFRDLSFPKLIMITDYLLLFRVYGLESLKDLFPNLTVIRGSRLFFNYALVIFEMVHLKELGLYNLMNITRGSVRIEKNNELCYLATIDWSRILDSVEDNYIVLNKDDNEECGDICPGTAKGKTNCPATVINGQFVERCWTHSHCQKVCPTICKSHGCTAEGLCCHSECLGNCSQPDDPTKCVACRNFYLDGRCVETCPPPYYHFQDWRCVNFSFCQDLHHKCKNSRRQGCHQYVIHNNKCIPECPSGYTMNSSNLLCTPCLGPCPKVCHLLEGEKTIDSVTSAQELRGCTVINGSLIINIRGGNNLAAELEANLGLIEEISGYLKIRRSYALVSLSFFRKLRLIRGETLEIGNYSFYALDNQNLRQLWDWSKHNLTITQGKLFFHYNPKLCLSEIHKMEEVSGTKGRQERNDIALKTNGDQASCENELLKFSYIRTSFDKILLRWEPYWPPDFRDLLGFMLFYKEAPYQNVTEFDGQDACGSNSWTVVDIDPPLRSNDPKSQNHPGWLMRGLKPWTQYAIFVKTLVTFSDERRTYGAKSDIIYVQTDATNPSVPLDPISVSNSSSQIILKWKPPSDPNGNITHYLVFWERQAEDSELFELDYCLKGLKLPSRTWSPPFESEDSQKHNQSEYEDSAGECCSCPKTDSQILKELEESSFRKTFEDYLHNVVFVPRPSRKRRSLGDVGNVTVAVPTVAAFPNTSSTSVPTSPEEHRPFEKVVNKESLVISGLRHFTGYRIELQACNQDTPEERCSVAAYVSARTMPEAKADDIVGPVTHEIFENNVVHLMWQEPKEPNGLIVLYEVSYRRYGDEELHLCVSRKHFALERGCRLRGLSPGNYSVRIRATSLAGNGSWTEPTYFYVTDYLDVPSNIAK
# Results are given in words; binding and its absence hold for the method and conditions named. Some entries that bind do so weakly or less than the wild type.
# Molecular target: T1, human SorCS1-a (overlapping peptides of the entire primary sequence on a SPOT membrane) (human) (UniProt Q8WY21)
# T1 sequence: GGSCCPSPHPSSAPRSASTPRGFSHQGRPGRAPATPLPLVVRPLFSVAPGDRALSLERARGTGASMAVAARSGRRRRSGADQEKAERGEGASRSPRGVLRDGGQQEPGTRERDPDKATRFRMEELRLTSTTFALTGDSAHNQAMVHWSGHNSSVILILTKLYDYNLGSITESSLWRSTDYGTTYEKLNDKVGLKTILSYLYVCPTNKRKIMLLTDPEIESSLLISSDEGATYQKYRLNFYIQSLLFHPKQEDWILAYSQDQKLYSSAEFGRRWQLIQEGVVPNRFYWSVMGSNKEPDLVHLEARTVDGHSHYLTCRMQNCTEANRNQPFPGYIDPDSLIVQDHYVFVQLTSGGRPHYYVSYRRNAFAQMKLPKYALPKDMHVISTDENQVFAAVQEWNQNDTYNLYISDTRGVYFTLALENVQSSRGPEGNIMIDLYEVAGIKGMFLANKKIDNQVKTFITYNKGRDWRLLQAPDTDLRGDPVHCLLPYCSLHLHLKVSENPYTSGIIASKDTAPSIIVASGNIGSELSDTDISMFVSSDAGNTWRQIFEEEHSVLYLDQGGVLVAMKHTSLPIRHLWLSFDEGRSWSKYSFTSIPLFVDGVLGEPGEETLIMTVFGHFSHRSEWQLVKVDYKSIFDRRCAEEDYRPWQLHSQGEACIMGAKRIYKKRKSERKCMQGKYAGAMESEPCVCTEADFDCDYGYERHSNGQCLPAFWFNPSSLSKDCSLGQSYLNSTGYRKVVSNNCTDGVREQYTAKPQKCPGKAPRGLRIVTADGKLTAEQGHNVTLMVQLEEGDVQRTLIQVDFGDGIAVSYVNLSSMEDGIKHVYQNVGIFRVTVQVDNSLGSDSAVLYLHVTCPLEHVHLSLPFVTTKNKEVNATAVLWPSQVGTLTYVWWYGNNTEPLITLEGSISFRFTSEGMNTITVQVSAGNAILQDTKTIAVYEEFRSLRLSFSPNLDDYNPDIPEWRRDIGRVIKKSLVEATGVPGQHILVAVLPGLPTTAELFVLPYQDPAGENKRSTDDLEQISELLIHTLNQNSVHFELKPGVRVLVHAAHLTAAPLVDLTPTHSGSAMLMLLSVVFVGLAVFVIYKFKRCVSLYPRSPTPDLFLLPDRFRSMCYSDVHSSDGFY
# Assay: SPOT peptide array of SorCS1-a probed with his-tagged IR
substance,measurement,value
"histidine-tagged insulin receptor (R&D systems, no1544-IR/CF) (from UniProt P06213 28-944)",binding,binds
